The list shows a part of the results. Many values rest on one well or one pass, so single values are uncertain.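 The apoptosis fraction was the count of cleaved-PARP antibody-stained nuclei relative to all DNA-stained nuclei, imaged in 1,536-well plates. Screening doses were set so most cells survived, and baseline and induced cleaved-PARP levels vary greatly across cell lines.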
System: G361
Experiment: cleaved PARP positive nuclei fraction relative to DMSO control; melanoma cells; higher = more apoptosis
Conditions: library dose: low library concentration; 72 h

| Structure (SMILES) | cleaved PARP positive nuclei fraction |
| --- | --- |
| CCCCCCCCc1ccc(CCC(N)(CO)CO)cc1 [fingolimod] + C#Cc1cccc(Nc2ncnc3cc(OCCOC)c(OCCOC)cc23)c1 [erlotinib] (first compound 2 µM, partner dose 0.8 µM) | 160% |
| C[C@]1(O)C[C@@H](c2nc(-c3ccc4ccc(-c5ccccc5)nc4c3)c3c(N)nccn32)C1 + O=C(O)[C@@H]1[O][Sb](=[O])([O][Sb]2(=[O])[O][C@H]([C@H](O)CO)[C@H](O)[C@H](C(=O)O)[O]2)[O][C@H]([C@H](O)CO)[C@@H]1O [stibogluconate] (first compound 0.4 µM, partner dose 2 µM) | 109% |
| CC1(C)CCC(c2ccc(Cl)cc2)=C(CN2CCN(c3ccc(C(=O)NS(=O)(=O)c4ccc(N[C@H](CCN5CCOCC5)CSc5ccccc5)c(S(=O)(=O)C(F)(F)F)c4)cc3)CC2)C1 + COc1ccc(Cl)c(Nc2nc3ccccc3nc2NS(=O)(=O)c2cccc(NC(=O)C(C)(C)N)c2)c1 [XL147] (first compound 0.4 µM, partner dose 0.8 µM) | 201% |
| CC(=O)O[C@@]12CO[C@@H]1C[C@H](O)[C@@]1(C)C(=O)[C@H](O)C3=C(C)[C@@H](OC(=O)[C@H](O)[C@@H](NC(=O)OC(C)(C)C)c4ccccc4)C[C@@](O)([C@@H](OC(=O)c4ccccc4)[C@H]21)C3(C)C [Docetaxel] + Cc1nc(Nc2ncc(C(=O)Nc3c(C)cccc3Cl)s2)cc(N2CCN(CCO)CC2)n1 [dasatanib] (first compound 0.0001 µM, partner dose 0.004 µM) | 1000% |

Reference: the supplement of paper PMC4604168 (melanoma cell lines)
